Publication PMC8423306, “Coordinated action of multiple transporters in the acquisition of essential cationic amino acids by the intracellular parasite Toxoplasma gondii” (PLoS Pathogens, 2021)

Molecular target: T1, TgApiAT6-1 (Toxoplasma gondii, UniProt A0A125YQS6)
T1 sequence (A0A125YQS6 1-566): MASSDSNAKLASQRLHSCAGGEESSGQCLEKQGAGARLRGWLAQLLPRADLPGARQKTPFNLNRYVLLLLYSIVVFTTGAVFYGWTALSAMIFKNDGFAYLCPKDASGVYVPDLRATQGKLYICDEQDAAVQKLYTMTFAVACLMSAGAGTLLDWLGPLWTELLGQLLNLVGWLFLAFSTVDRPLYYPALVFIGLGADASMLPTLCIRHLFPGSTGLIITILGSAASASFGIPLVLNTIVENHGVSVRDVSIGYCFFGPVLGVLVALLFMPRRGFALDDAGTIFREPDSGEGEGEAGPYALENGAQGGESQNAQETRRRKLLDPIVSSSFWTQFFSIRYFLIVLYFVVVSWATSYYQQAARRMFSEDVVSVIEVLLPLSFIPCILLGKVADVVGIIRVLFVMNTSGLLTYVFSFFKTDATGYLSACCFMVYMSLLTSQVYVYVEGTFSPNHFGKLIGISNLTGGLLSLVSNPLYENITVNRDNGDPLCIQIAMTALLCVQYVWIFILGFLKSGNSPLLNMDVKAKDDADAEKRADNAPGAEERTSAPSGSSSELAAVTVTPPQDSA
Set-up: gene ApiAT6-1

NCCC[C@H](N)C(=O)O [Or, ornithine]
trans-stimulation of [14C]Arg efflux and uptake in Xenopus oocytes: observed in the presence of several cationic amino acids (e.g. Arg, His, Orn)
